Results deposited as PubChem BioAssay AID1508597 (Cure First, 2020).
Shown is a random part of the about 2,100 reagents, under one of the conditions tested. 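Calls flag viability under 80% in either arm, not effects specific to rucaparib; the reference for percent is not stated.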 A number with no mark means an inactive call. Some reagents were tested in more than one well and are listed for each. No sequences are given here. Not stated in the record: the 100% reference.

Test: 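Knock-downs altering ovarian cancer cell survival with or without PARP inhibitor rucaparib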 (primary screen)
System: human ovarian carcinoma lines grown from tumours: OCI-P5x (papillary serous) and OCI-C5x (clear cell)
Knock-down reagent: siRNA pool against human genes, 1.25 pmol siRNA per well
Timing: 72 h or 96 h, depending on the cell culture
Challenge: rucaparib 20 µM (about IC30) or vehicle, present until read-out
Rucaparib or vehicle: Vehicle
Cell line: OCI-C5x (clear cell)
Detection: 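ATP luminescence measured at 72 or 96 h according to the culture, then normalised and expressed as percent viability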
Direction: viability, normalised: higher = more viable cells remaining
Hit rule: 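a well counts as a hit if its normalised viability is under 80 percent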
Meaning of the calls: active = viability under 80%; inactive = viability 80% or more

gene symbol | technical replicate | viability, normalised (%)
ABL1 (ABL proto-oncogene 1, non-receptor tyrosine kinase) | 1 | 42.5 (active)
ABL1 (ABL proto-oncogene 1, non-receptor tyrosine kinase) | 1 | 53.4 (active)
ABL1 (ABL proto-oncogene 1, non-receptor tyrosine kinase) | 2 | 65.3 (active)
ABL1 (ABL proto-oncogene 1, non-receptor tyrosine kinase) | 2 | 55 (active)
ABL1 (ABL proto-oncogene 1, non-receptor tyrosine kinase) | 3 | 58.4 (active)
ABL1 (ABL proto-oncogene 1, non-receptor tyrosine kinase) | 3 | 36.6 (active)
RARA (retinoic acid receptor alpha) | 1 | 46.4 (active)
RARA (retinoic acid receptor alpha) | 2 | 35.4 (active)
RARA (retinoic acid receptor alpha) | 3 | 45.2 (active)
ERBB3 (erb-b2 receptor tyrosine kinase 3) | 1 | 49.2 (active)
ERBB3 (erb-b2 receptor tyrosine kinase 3) | 2 | 44.1 (active)
ERBB3 (erb-b2 receptor tyrosine kinase 3) | 3 | 40.2 (active)
BPTF (bromodomain PHD finger transcription factor) | 1 | 18.5 (active)
BPTF (bromodomain PHD finger transcription factor) | 2 | 24.7 (active)
BPTF (bromodomain PHD finger transcription factor) | 3 | 22.4 (active)
SLX1A (structure-specific endonuclease subunit SLX1A) | 1 | 35.7 (active)
SLX1A (structure-specific endonuclease subunit SLX1A) | 2 | 41.5 (active)
SLX1A (structure-specific endonuclease subunit SLX1A) | 3 | 35.7 (active)
GDPD2 (glycerophosphodiester phosphodiesterase domain containing 2) | 1 | 33.1 (active)
GDPD2 (glycerophosphodiester phosphodiesterase domain containing 2) | 2 | 28.4 (active)
GDPD2 (glycerophosphodiester phosphodiesterase domain containing 2) | 3 | 35.6 (active)
MAP3K3 (mitogen-activated protein kinase kinase kinase 3) | 1 | 75.3 (active)
MAP3K3 (mitogen-activated protein kinase kinase kinase 3) | 2 | 59.9 (active)
MAP3K3 (mitogen-activated protein kinase kinase kinase 3) | 3 | 60.9 (active)
PHKG2 (phosphorylase kinase catalytic subunit gamma 2) | 1 | 59.6 (active)
PHKG2 (phosphorylase kinase catalytic subunit gamma 2) | 2 | 56.4 (active)
PHKG2 (phosphorylase kinase catalytic subunit gamma 2) | 3 | 66.6 (active)
TINF2 (TERF1 interacting nuclear factor 2) | 1 | 76.3 (active)
TINF2 (TERF1 interacting nuclear factor 2) | 2 | 62 (active)
TINF2 (TERF1 interacting nuclear factor 2) | 3 | 47.7 (active)
PRKCE (protein kinase C epsilon) | 1 | 55.5 (active)
PRKCE (protein kinase C epsilon) | 2 | 42.2 (active)
PRKCE (protein kinase C epsilon) | 3 | 41.1 (active)
LMNA (lamin A/C) | 1 | 79.6 (active)
LMNA (lamin A/C) | 2 | 76.8 (active)
LMNA (lamin A/C) | 3 | 90.5

Continued, starting with the last 2 of the part before.
gene symbol | technical replicate | viability, normalised (%)
LMNA (lamin A/C) | 2 | 76.8 (active)
LMNA (lamin A/C) | 3 | 90.5
NDUFA10 (NADH:ubiquinone oxidoreductase subunit A10) | 1 | 88.8
NDUFA10 (NADH:ubiquinone oxidoreductase subunit A10) | 2 | 57 (active)
NDUFA10 (NADH:ubiquinone oxidoreductase subunit A10) | 3 | 50.9 (active)
SOD2 (superoxide dismutase 2) | 1 | 47.6 (active)
SOD2 (superoxide dismutase 2) | 2 | 44.1 (active)
SOD2 (superoxide dismutase 2) | 3 | 45.7 (active)
STRADB (STE20 related adaptor beta) | 1 | 91.1
STRADB (STE20 related adaptor beta) | 2 | 75.7 (active)
STRADB (STE20 related adaptor beta) | 3 | 55.9 (active)
EGFR (epidermal growth factor receptor) | 1 | 42.3 (active)
EGFR (epidermal growth factor receptor) | 2 | 66.1 (active)
EGFR (epidermal growth factor receptor) | 3 | 60.6 (active)
TYRO3 (TYRO3 protein tyrosine kinase) | 1 | 51.4 (active)
TYRO3 (TYRO3 protein tyrosine kinase) | 2 | 50.5 (active)
TYRO3 (TYRO3 protein tyrosine kinase) | 3 | 51.9 (active)
ERCC6L (ERCC excision repair 6 like DNA helicase) | 1 | 74.7 (active)
ERCC6L (ERCC excision repair 6 like DNA helicase) | 2 | 54.3 (active)
ERCC6L (ERCC excision repair 6 like DNA helicase) | 3 | 42.1 (active)
CAMK2A (calcium/calmodulin dependent protein kinase II alpha) | 1 | 68.2 (active)
CAMK2A (calcium/calmodulin dependent protein kinase II alpha) | 2 | 55.2 (active)
CAMK2A (calcium/calmodulin dependent protein kinase II alpha) | 3 | 57.7 (active)
